{"source": "patent US20140072986", "assay_in_all_cases": "binding assay", "key": {"[1]": {"biological_target": "alpha-synuclein monomer (UniProt P37840)", "settings": "aptamer blotting, purified recombinant protein, protein details: expressed from pET-28a(+) in E. coli BL21(DE3), label: 5'-FITC, folded or branched DNA"}, "[2]": {"biological_target": "amyloid beta 1-40 fibril (UniProt P05067)", "settings": "aptamer blotting, protein details: Peptide Institute peptide, folded or branched DNA"}, "[3]": {"biological_target": "amyloid beta 1-40 monomer (UniProt P05067)", "settings": "aptamer blotting, protein details: Peptide Institute peptide, folded or branched DNA"}, "[4]": {"test_system": "IgG antibody", "settings": "aptamer blotting, 5 pmol protein; protein details: Sigma Aldrich; label: 5'-FITC; folded or branched DNA"}, "[5]": {"test_system": "luciferase", "settings": "aptamer blotting, 5 pmol protein; purified recombinant protein; protein details: recombinantly produced in E. coli; label: 5'-FITC; folded or branched DNA"}, "[6]": {"settings": "200 nM, spot seen, oligomer spot stronger, label: FITC via 18-mer complementary strand at 3' end"}, "[7]": {"settings": "200 nM, label: FITC via 18-mer complementary strand at 3' end"}}, "note": "A negative result means that nothing was seen under these conditions. For part of these data: The comparison behind a weaker result is the experiment's own reference, which may not be listed here. For part of these data: For at least one entry, the source does not settle the construct or the ends of the probe.", "data": [{"sequence": "AAAAACAGGGGTGGGCAAAGGGCGGTGGTGTTTTTCAGGGGTGGGCAAAGGGCGGTGGTG [504W]", "values": [{"measurement": "binding result", "setting": "[1]; same specificity as T-SO504, variant of T-SO504", "result": "no binding"}]}, {"sequence": "CAGGGGTGGGCAAAGGGCGGTGGTG [T-SO504]", "values": [{"measurement": "binding result", "setting": "[1]; 100 nM", "result": "no binding"}, {"measurement": "binding result", "setting": "[2]; 500 nM, label: 5'-FITC", "result": "no binding"}, {"measurement": "binding result", "setting": "[3]; 500 nM, label: 5'-FITC", "result": "no binding"}]}, {"sequence": "CGAGGGGCGTCTGGGAGTGGTCGG [T-SO554]", "values": [{"measurement": "binding result", "setting": "[1]; 100 nM", "result": "no binding"}, {"measurement": "binding result", "setting": "[2]; 500 nM, label: 5'-FITC", "result": "no binding"}, {"measurement": "binding result", "setting": "[3]; 500 nM, label: 5'-FITC", "result": "no binding"}]}, {"sequence": "CGAGGGGCGTCTGGGGGGGAGGGA [2G16]", "values": [{"measurement": "binding result", "setting": "[2]; [6]", "result": "binds more weakly"}, {"measurement": "binding result", "setting": "[3]; [7]", "result": "no binding"}]}, {"sequence": "CGGGGGGCCTGAGGGGGGGAGGGA [3G4]", "values": [{"measurement": "binding result", "setting": "[2]; [6]", "result": "binds more weakly"}, {"measurement": "binding result", "setting": "[3]; [7]", "result": "no binding"}]}, {"sequence": "GCCTGTGGTGTTGGGGCGGGTGCG [T-SO508]", "values": [{"measurement": "binding result", "setting": "[1]; 100 nM", "result": "no binding"}, {"measurement": "binding result", "setting": "[2]; 500 nM, label: 5'-FITC", "result": "no binding"}, {"measurement": "binding result", "setting": "[3]; 500 nM, label: 5'-FITC", "result": "no binding"}]}, {"sequence": "GCGGTAGGGTGTGAGCGGAAGGGG [T-SO602]", "values": [{"measurement": "binding result", "setting": "[1]; 100 nM", "result": "no binding"}, {"measurement": "binding result", "setting": "[2]; 500 nM, label: 5'-FITC", "result": "no binding"}, {"measurement": "binding result", "setting": "[3]; 500 nM, label: 5'-FITC", "result": "no binding"}]}, {"sequence": "GCGTGTGGGGCTTGGGCAGCTGGG [T-SO552]", "values": [{"measurement": "binding result", "setting": "[1]; 100 nM", "result": "no binding"}, {"measurement": "binding result", "setting": "[2]; 500 nM, label: 5'-FITC", "result": "no binding"}, {"measurement": "binding result", "setting": "[3]; 500 nM, label: 5'-FITC", "result": "no binding"}]}, {"sequence": "GGGTCGGCTGTCCGTGGGTGGGGA [T-SO606]", "values": [{"measurement": "binding result", "setting": "[4]", "result": "no binding"}, {"measurement": "binding result", "setting": "[1]; 100 nM", "result": "no binding"}, {"measurement": "binding result", "setting": "[2]; 500 nM, label: 5'-FITC", "result": "no binding"}, {"measurement": "binding result", "setting": "[3]; 500 nM, label: 5'-FITC", "result": "no binding"}, {"measurement": "binding result", "setting": "[5]", "result": "no binding"}]}, {"sequence": "GGTGCGGCGGGACTAGTGGGTGTG [T-SO530]", "values": [{"measurement": "binding result", "setting": "[1]; 100 nM", "result": "no binding"}, {"measurement": "binding result", "setting": "[2]; 500 nM, label: 5'-FITC", "result": "no binding"}, {"measurement": "binding result", "setting": "[3]; 500 nM, label: 5'-FITC", "result": "no binding"}]}, {"sequence": "GGTGGCTGGAGGGGGCGCGAACG [T-SO517]", "values": [{"measurement": "binding result", "setting": "[4]", "result": "no binding"}, {"measurement": "binding result", "setting": "[1]; 100 nM", "result": "no binding"}, {"measurement": "binding result", "setting": "[2]; 500 nM, label: 5'-FITC", "result": "no binding"}, {"measurement": "binding result", "setting": "[3]; 500 nM, label: 5'-FITC", "result": "no binding"}, {"measurement": "binding result", "setting": "[5]", "result": "no binding"}]}]}
